{"source": "patent US10974064B2", "about": "“Optogenetic control of behavioral state” (The Board of Trustees of the Leland Stanford Junior …, priority 2013, dated 2021)", "system": "adBNST neurons", "assay": "Calcium imaging (OGB-1) of persistent activity in adBNST slice after electrical stimulation", "assay_type": "cell-based, mice", "settings": "bath application of 100 μM APV alone or 10 μM NBQX and 100 μM APV; versus 50 μA control", "note": "Some results were stated once for a whole list of compounds, not compound by compound."}
{"smiles": "NC(CCCP(=O)(O)O)C(=O)O", "note": "(stereo not shown) [APV, 2-amino-5-phosphonopentanoic acid]", "values": [{"measurement": "reduction of the fraction of activated cells", "value": "over 40%"}]}
